Source: paper PMC10113159
The exact form of at least one protein or probe is not confirmed.

Chains of the proteins cited; added tags and fusions are not shown. A line that says so, or that is headed by a name, gives the form on record, which may keep a tag or linker.
RPA heterotrimer, phosphomimetic RPA2 S/T>D S8D,S11D,S12D,S13D,T21D,S23D,S29D,S33D,RPA2: (Homo sapiens), one chain, as listed by the source S11D S12D S13D T21D S23D S29D S33D, chain 2 of 3: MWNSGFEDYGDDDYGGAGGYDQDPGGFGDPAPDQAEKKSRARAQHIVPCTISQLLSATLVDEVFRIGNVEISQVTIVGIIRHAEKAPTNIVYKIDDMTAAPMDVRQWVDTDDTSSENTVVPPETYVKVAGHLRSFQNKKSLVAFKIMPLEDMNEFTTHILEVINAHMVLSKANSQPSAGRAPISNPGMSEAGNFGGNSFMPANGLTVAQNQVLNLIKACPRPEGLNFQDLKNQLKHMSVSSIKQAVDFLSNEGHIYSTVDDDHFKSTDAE

Tested on: RPA heterotrimer, phosphomimetic RPA2 S/T>D S8D,S11D,S12D,S13D,T21D,S23D,S29D,S33D,RPA2: (Homo sapiens)
Experiment: fluorescence microscopy, co-assembly
Conditions: equimolar, ssDNA-containing aggregates instead of droplets; protein stored in diluted Sorensen phosphate buffer (43.4 mM Na2HPO4, 6.6 mM KH2PO4) pH 7.6, 150 mM KCl, 25 uM EDTA; recombinant protein; protein details: untagged; single-stranded DNA

“ATGTGGAACAGTGGATTCGAAAGCTATGGCAGCGACGACT [FAM-40nt ssDNA]”: binds.
